Data from the supplement of paper PMC2577665.
± gives the standard deviation of the averaged measurements. This is a noisy data set.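 Every well combined ERalpha-negative HeLa cells, transfected ERalpha, a two-estrogen-response-element reporter, and overexpression of a single poorly characterized human cDNA. Any gene lowering the signal to at most the BRCA1 positive control level, about 0.6 of empty vector, was called a repressor hit.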

Each substance was assayed on ERE-luciferase reporter with exogenous ERalpha in HeLa cells (assay: relative ERE luciferase activity (Firefly/Renilla) upon cDNA overexpression, relative to empty vector (fold of empty vector); higher = stronger ERalpha transactivation (less repression)). Settings: 17beta-estradiol: 10 nM; 12 h.
In the case of “MSDCYTELEKAVIVLVENFYKYVSKYSLVKNKISKSSFREMLQKELNHMLSDTGNRKAADKLIQNLDANHDGRISFDEYWTLIGGITGPIAKLIHEQEQQSSS [S100A16]”, the “relative ERE luciferase activity” value is reported as 1.27. “MDWDDEYSHNSFDLHCLLNSFPGDLEFEQIFSDIDEKIEQNAASIKHCIKEIQSEINKQCPGVQLQTTTDCFEWLTNYNYSTSESSFISHGDLIKFFKTLQDLLKNEQNQEEMTLDLLWDLSCHSSVSFPSTLSGTSFHFLSRTSLHSVEDNSSMDVKSMWDDIRLHLRRFLVSKLQSHNEINNSQQKILLKKQCLQQLLFLYPESEVIIKYQNIQNKLLANLLWNCFPSYNRDSNLDVIAHGYQSTMLKLYSVIKEDFNTLCEILAPSSMVKFIKETYLDTVTEEMAKFLENFCELQFRENAVRVVKTSKSSSKHRGAVHALVTTECPQKGRNFSLPLDKVEFLSQLIKSFMKLEKGVQELFDEILLSLKITRDTSGILEKSDREVVMEKPRANETNIPSEQSLPGKEATLLDFGWRSAFKEVSLPMAHCVVTAIEGFSTKILQQEQNERSSAVSYAMNLVNVQQVWQDSHMFPEEEQPKKIGKFCSDIMEKLDTMLPLALACRDDSFQEIRANLVEACCKVATAVLQRLQERAKEVPSKAPLKNLHTYLSTAVYVFQHFKRYDNLMKEMTKKPIFLVLVQRYQEFINTLQFQVTNYCVRVCATSILQDAESHHWDDYKAFYEGERCSFSIQMWHYFCWSLHYDLWTILPPKLAQEILVEVLEKSLSLLASRYARAHPSRKRTPQLRLDVTTILICTENMLWSVCTSVQKLLNPHQHTDDKIFKIHTHCNNLFTTLVILTSPLTELYKTFQHGLDESASDSLKSFFKQPLYWVSCISHFYPSLLRTPSAGGLKAEGQLKLLLSQPRCNWNLLLETLLHHDGLLLRILLKSSKQVSDTENNLNQGPSLMEAIFKILYHCSFSPQTFANVFVSYMEEEQLWDFLYNIPVSTCVEYELEVIRCLRLALTDAIKDTVQQIVSVMSSRRNCETNLNKHIVPDCLLESMPKEWNYSPKETNRKESCKSFTRLTAQAVSIVISKLPTVIACLPPPVKYFFFLSERKMSKKFVELKKAGLLVWNLIVIICRIFEDGNTVELLTGASLDRWSKEKLGLICMCLKSIMGDQTSIHNQMIQKVIQSIEQQKPNWIERQLLKARKLSTECAFMTIEKSTALQEGDVALELTEQKINTMVLDLCHKPGGREYLRQIYHIMQLNEEYLKEQLFSMNSSEEKPLPIRPLKTTLRSIEDQPSAFNPFHVYKAFSENMLDQSAITKWNWNWAKLLPNYLRLDKMTFSVLLKNRWEMKKDETLEEEEKAILEHLKQICTPQNSSASDNIEEQ [C5orf36]” was tested, and the “relative ERE luciferase activity” value was 1. With “MSLCSPTHSAEMSLFLQGPEEMLPLSSEGSEMGSEKEQSPEPHLPEEGEGGKPWRVDDSEGSWIPPGEKEHGQESLSDELQETHPKKPWQKVTVRARELGDPIAHPRHEADEKPFICAQCGKTFNNTSNLRTHQRIHTGEKPYKCSECGKSFSRSSNRIRHERIHLEEKHYKCPKCQESFRRRSDLTTHQQDHLGKRPYRCDICGKSFSQSATLAVHHRTHLEPAPYICCECGKSFSNSSSFGVHHRTHTGERPYECTECGRTFSDISNFGAHQRTHRGEKPYRCTVCGKHFSRSSNLIRHQKTHLGEQAGKDSS [ZNF691]” the “relative ERE luciferase activity” value was 1.08. For “MPTVISASVAPRTAAEPRSPGPVPHPAQSKATEAGGGNPSGIYSAIISRNFPIIGVKEKTFEQLHKKCLEKKVLYVDPEFPPDETSLFYSQKFPIQFVWKRPPEICENPRFIIDGANRTDICQGELGDCWFLAAIACLTLNQHLLFRVIPHDQSFIENYAGIFHFQFWRYGEWVDVVIDDCLPTYNNQLVFTKSNHRNEFWSALLEKAYAKLHGSYEALKGGNTTEAMEDFTGGVAEFFEIRDAPSDMYKIMKKAIERGSLMGCSIDDGTNMTYGTSPSGLNMGELIARMVRNMDNSLLQDSDLDPRGSDERPTRTIIPVQYETRMACGLVRGHAYSVTGLDEVPFKGEKVKLVRLRNPWGQVEWNGSWSDRWKDWSFVDKDEKARLQHQVTEDGEFWMSYEDFIYHFTKLEICNLTADALQSDKLQTWTVSVNEGRWVRGCSAGGCRNFPDTFWTNPQYRLKLLEEDDDPDDSEVICSFLVALMQKNRRKDRKLGASLFTIGFAIYEVPKEMHGNKQHLQKDFFLYNASKARSKTYINMREVSQRFRLPPSEYVIVPSTYEPHQEGEFILRVFSEKRNLSEEVENTISVDRPVKKKKTKPIIFVSDRANSNKELGVDQESEEGKGKTSPDKQKQSPQPQPGSSDQESEEQQQFRNIFKQIAGDDMEICADELKKVLNTVVNKHKDLKTHGFTLESCRSMIALMDTDGSGKLNLQEFHHLWNKIKAWQKIFKHYDTDQSGTINSYEMRNAVNDAGFHLNNQLYDIITMRYADKHMNIDFDSFICCFVRLEGMFRAFHAFDKDGDGIIKLNVLEWLQLTMYA [CAPN3]”, the “relative ERE luciferase activity” value was 1.12. In the case of “MKITRQKHAKKHLGFFRNNFGVREPYQILLDGTFCQAALRGRIQLREQLPRYLMGETQLCTTRCVLKELETLGKDLYGAKLIAQKCQVRNCPHFKNAVSGSECLLSMVEEGNPHHYFVATQDQNLSVKVKKKPGVPLMFIIQNTMVLDKPSPKTIAFVKAVESGQLVSVHEKESIKHLKEEQGLVKNTEQSRRKKRKKISGPNPLSCLKKKKKAPDTQSSASEKKRKRKRIRNRSNPKVLSEKQNAEGE [C8orf53]”, the “relative ERE luciferase activity” value is reported as 1.08. “MTEETHPDDDSYIVRVKAVVMTRDDSSGGWFPQEGGGISRVGVCKVMHPEGNGRSGFLIHGERQKDKLVVLECYVRKDLVYTKANPTFHHWKVDNRKFGLTFQSPADARAFDRGVRKAIEDLIEGSTTSSSTIHNEAELGDDDVFTTATDSSSNSSQKREQPTRTISSPTSCEHRRIYTLGHLHDSYPTDHYHLDQPMPRPYRQVSFPDDDEEIVRINPREKIWMTGYEDYRHAPVRGKYPDPSEDADSSYVRFAKGEVPKHDYNYPYVDSSDFGLGEDPKGRGGSVIKTQPSRGKSRRRKEDGERSRCVYCRDMFNHEENRRGHCQDAPDSVRTCIRRVSCMWCADSMLYHCMSDPEGDYTDPCSCDTSDEKFCLRWMALIALSFLAPCMCCYLPLRACYHCGVMCRCCGGKHKAAA [SPRED2]” was tested, and the “relative ERE luciferase activity” value was 1.08. With “MASMPPTPEAQGPILFEDLAVYFSQEECVTLHPAQRSLSKDGTKESLEDAALMGEEGKPEINQQLSLESMELDELALEKYPIAAPLVPYPEKSSEDGVGNPEAKILSGTPTYKRRVISLLVTIENHTPLVELSEYLGTNTLSEILDSPWEGAKNVYKCPECDQNFSDHSYLVLHQKIHSGEKKHKCGDCGKIFNHRANLRTHRRIHTGEKPYKCAKCSASFRQHSHLSRHMNSHVKEKPYTCSICGRGFMWLPGLAQHQKSHSAENTYESTNCDKHFNEKPNLALPEETFVSGPQYQHTKCMKSFRQSLYPALSEKSHDEDSERCSDDGDNFFSFSKFKPLQCPDCDMTFPCFSELISHQNIHTEERPHKCKTCEESFALDSELACHQKSHMLAEPFKCTVCGKTFKSNLHLITHKRTHIKNTT [ZNF597]” the “relative ERE luciferase activity” value was 1.18. In the case of “MDSKYQCVKLNDGHFMPVLGFGTYAPAEVPKSKALEATKLAIEAGFRHIDSAHLYNNEEQVGLAIRSKIADGSVKREDIFYTSKLWCNSHRPELVRPALERSLKNLQLDYVDLYLIHFPVSVKPGEEVIPKDENGKILFDTVDLCATWEAVEKCKDAGLAKSIGVSNFNRRQLEMILNKPGLKYKPVCNQVECHPYFNQRKLLDFCKSKDIVLVAYSALGSHREEPWVDPNSPVLLEDPVLCALAKKHKRTPALIALRYQLQRGVVVLAKSYNEQRIRQNVQVFEFQLTSEEMKAIDGLNRNVRYLTLDIFAGPPNYPFSDEY [AKR1C1]”, the “relative ERE luciferase activity” value is reported as 1.06. ZNF34 was tested, and the “relative ERE luciferase activity” value was 1.08. With “MADDLGDEWWENQPTGAGSSPEASDGEGEGDTEVMQQETVPVPVPSEKTKQPKECFLIQPKERKENTTKTRKRRKKKITDVLAKSEPKPGLPEDLQKLMKDYYSSRRLVIELEELNLPDSCFLKANDLTHSLSSYLKEICPKWVKLRKNHSEKKSVLMLIICSSAVRALELIRSMTAFRGDGKVIKLFAKHIKVQAQVKLLEKRVVHLGVGTPGRIKELVKQGGLNLSPLKFLVFDWNWRDQKLRRMMDIPEIRKEVFELLEMGVLSLCKSESLKLGLF [C3orf26]” the “relative ERE luciferase activity” value was 0.97. “MATKPTEPVTILSLRKLSLGTAEPQVKEPKTFTVEDAVETIGFGRFHIALFLIMGSTGVVEAMEIMLIAVVSPVIRCEWQLENWQVALVTTMVFFGYMVFSILFGLLADRYGRWKILLISFLWGAYFSLLTSFAPSYIWFVFLRTMVGCGVSGHSQGLIIKTEFLPTKYRGYMLPLSQVFWLAGSLLIIGLASVIIPTIGWRWLIRVASIPGIILIVAFKFIPESARFNVSTGNTRAALATLERVAKMNRSVMPEGKLVEPVLEKRGRFADLLDAKYLRTTLQIWVIWLGISFAYYGVILASAELLERDLVCGSKSDSAVVVTGGDSGESQSPCYCHMFAPSDYRTMIISTIGEIALNPLNILGINFLGRRLSLSITMGCTALFFLLLNICTSSAGLIGFLFMLRALVAANFNTVYIYTAEVYPTTMRALGMGTSGSLCRIGAMVAPFISQVLMSASILGALCLFSSVCVVCAISAFTLPIETKGRALQQIK [SVOPL]” was tested, and the “relative ERE luciferase activity” value was 1.14. With “MAKSKTKHRLCSQESSVSALLASCTLSGSNSSNSDGSFHYKDKLYRSASQALQAYIDDFDLGQIYPGASTGKINIDEDFTNMSQFCNYIYKPNNAFENLDHKKHSNFISCRRHTVNDIDSMSLTTDDLLRLPADGSFSYTYVGPSHRTSKKNKKCRGRLGSLDIEKNPHFQGPYTSMGKDNFVTPVIRSNINGKQCGDKIELLILKAKRNLEQCTEELPKSMKKDDSPCSLDKLEADRSWENIPVTFKSPVPVNSDDSPQQTSRAKSAKGVLEDFLNNDNQSCTLSGGKHHGPVEALKQMLFNLQAVQERFNQNKTTDPKEEIKQVSEDDFSKLQLKESMIPITRSLQKALHHLSRLRDLVDDTNGERSPKM [C18orf54]” the “relative ERE luciferase activity” value was 1 ± 0.15. With ZSCAN16 the “relative ERE luciferase activity” value was 0.754. In the case of “MWSGLLPPGLNESDAESNSEDEATLENSGLNLQEDKEDESIRKTEIIDFSTDEPKTETESNVNAYEECPSGIPIDMWNKFQELHKKHSEQKSTTSRFRGKRRKRSRKDKLKNEKELHSEPSSNETQWKELTQYFGVNDRFDPPVKRKKVEKSGLEKRIDQAVEEWNIEKAEELSNQLATRELGVKIAKAVACHNFVKAKKEVENSQAARKKKKLAWGFEAKKRWETKSNMGYM [C10orf84]”, the “relative ERE luciferase activity” value is reported as 1.25. “MEDAAAPGRTEGVLERQGAPPAAGQGGALVELTPTPGGLALVSPYHTHRAGDPLDLVALAEQVQKADEFIRANATNKLTVIAEQIQHLQEQARKVLEDAHRDANLHHVACNIVKKPGNIYYLYKRESGQQYFSIISPKEWGTSCPHDFLGAYKLQHDLSWTPYEDIEKQDAKISMMDTLLSQSVALPPCTEPNFQGLTH [C1orf50]” was tested, and the “relative ERE luciferase activity” value was 1.17. “MWSRLVWLGLRAPLGGRQGFTSKADPQGSGRITAAVIEHLERLALVDFGSREAVARLEKAIAFADRLRAVDTDGVEPMESVLEDRCLYLRSDNVVEGNCADELLQNSHRVVEEYFVAPPGNISLPKLDEQEPFPHS [15E1.2]” was tested, and the “relative ERE luciferase activity” value was 1.14. For “MAASTDMAGLEESFRKFAIHGDPKASGQEMNGKNWAKLCKDCKVADGKSVTGTDVDIVFSKVKGKSARVINYEEFKKALEELATKRFKGKSKEEAFDAICQLVAGKEPANVGVTKAKTGGAVDRLTDTSRYTGSHKERFDESGKGKGIAGRQDILDDSGYVSAYKNAGTYDAKVKK [TPPP3]”, the “relative ERE luciferase activity” value was 1.06.
